# Values joined by “and” are separate entries in the source; they are usually repeats but may differ in a detail not shown here. Equal entries are not always repeated. Inconclusive means that the source gave no clear call. Such entries were picked first, then a sample of the others. For some of these results: Where the call is inconclusive, the potency comes from a doubtful curve fit. Active and inactive are the calls of the source. Rule for the calls: active = hit-call score of the fitted dose curve at least 0.9, where 1 is the maximum; inconclusive = response in the unintended direction; inactive = score below 0.9.
# Protein sequences, listed by entry. Tags and fused reporters are not part of them. Lines headed by an entry give the natural chain unless they say otherwise; changes in a name come on top.
# UniProt P03372, whole entry, looked up: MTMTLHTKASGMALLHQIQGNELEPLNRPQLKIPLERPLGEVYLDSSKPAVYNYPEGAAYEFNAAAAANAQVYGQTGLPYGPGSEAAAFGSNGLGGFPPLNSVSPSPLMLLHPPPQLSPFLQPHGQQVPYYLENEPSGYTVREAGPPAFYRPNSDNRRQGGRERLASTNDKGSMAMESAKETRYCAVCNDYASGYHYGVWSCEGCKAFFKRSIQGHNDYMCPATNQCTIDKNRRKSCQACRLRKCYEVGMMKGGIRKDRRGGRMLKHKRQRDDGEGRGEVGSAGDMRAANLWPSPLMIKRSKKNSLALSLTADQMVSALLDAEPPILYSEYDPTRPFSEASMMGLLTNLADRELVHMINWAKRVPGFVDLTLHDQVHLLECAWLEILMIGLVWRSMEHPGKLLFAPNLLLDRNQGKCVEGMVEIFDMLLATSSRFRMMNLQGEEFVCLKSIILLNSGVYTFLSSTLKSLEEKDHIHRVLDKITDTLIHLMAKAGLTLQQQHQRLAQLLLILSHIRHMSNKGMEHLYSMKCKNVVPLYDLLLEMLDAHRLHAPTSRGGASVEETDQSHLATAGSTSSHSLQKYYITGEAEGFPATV
# UniProt Q92731, whole entry, looked up: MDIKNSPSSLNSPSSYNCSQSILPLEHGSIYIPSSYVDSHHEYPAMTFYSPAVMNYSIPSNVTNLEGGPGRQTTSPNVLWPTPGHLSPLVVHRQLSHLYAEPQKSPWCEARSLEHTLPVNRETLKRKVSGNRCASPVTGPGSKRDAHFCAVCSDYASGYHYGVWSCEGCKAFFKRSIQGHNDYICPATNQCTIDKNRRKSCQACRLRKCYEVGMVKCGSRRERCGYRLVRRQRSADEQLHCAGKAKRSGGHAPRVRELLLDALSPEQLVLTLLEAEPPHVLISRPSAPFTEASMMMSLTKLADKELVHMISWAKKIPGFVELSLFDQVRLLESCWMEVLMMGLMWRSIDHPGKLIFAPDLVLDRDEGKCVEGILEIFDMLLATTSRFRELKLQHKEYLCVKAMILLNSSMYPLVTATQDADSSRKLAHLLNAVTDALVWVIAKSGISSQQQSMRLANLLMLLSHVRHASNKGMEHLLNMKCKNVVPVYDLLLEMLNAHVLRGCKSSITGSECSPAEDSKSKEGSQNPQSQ
# UniProt P04386, whole entry, looked up: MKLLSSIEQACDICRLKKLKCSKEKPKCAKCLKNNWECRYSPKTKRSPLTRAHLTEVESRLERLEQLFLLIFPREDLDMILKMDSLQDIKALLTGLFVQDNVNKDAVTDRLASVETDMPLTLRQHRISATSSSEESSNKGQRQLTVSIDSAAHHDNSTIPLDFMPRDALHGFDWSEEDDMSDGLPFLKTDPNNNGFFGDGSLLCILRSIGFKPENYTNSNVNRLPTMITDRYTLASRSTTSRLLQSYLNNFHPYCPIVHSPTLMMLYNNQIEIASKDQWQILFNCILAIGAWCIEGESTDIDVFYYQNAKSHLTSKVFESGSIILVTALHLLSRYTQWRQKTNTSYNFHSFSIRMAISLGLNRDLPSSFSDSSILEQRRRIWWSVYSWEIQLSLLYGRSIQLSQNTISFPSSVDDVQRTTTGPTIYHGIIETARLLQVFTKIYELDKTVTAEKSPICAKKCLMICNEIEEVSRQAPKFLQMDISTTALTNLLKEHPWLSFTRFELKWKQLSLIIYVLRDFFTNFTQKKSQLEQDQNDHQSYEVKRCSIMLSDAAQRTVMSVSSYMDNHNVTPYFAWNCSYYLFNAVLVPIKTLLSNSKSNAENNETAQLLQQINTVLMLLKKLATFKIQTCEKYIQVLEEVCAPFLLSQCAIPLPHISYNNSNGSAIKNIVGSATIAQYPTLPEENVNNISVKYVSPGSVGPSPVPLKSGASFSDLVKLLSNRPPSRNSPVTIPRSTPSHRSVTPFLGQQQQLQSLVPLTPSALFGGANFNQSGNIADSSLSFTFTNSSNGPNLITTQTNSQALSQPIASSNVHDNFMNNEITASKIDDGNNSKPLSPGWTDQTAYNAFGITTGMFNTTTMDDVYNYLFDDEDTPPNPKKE
# UniProt P15204: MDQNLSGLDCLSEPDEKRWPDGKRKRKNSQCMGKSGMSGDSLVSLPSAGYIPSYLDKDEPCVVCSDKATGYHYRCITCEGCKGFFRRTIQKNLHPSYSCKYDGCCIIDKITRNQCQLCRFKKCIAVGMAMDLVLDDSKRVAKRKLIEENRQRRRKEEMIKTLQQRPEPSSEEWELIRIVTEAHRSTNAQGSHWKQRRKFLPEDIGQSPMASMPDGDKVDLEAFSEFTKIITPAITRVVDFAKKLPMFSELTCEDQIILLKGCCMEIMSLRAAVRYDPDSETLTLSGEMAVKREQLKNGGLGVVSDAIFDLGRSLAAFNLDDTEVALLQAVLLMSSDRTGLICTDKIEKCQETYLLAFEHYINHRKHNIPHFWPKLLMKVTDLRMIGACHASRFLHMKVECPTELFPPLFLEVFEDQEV
# UniProt Q9UNQ0: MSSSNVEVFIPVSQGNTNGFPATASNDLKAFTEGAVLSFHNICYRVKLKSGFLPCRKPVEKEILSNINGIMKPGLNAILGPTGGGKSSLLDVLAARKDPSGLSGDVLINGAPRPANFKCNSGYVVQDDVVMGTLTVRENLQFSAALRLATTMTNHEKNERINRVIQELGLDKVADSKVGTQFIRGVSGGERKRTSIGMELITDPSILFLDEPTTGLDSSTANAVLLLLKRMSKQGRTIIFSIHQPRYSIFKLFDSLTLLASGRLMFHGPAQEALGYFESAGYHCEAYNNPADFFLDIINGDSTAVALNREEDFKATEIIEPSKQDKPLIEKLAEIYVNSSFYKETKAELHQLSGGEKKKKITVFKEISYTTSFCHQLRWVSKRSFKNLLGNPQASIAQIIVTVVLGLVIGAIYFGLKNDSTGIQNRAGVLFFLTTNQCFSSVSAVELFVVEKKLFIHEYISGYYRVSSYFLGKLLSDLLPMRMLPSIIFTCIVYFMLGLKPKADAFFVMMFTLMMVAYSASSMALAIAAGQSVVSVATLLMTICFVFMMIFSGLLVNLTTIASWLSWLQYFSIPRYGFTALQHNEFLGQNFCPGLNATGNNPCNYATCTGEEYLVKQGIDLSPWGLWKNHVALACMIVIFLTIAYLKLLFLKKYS
# UniProt P08684, whole entry, looked up: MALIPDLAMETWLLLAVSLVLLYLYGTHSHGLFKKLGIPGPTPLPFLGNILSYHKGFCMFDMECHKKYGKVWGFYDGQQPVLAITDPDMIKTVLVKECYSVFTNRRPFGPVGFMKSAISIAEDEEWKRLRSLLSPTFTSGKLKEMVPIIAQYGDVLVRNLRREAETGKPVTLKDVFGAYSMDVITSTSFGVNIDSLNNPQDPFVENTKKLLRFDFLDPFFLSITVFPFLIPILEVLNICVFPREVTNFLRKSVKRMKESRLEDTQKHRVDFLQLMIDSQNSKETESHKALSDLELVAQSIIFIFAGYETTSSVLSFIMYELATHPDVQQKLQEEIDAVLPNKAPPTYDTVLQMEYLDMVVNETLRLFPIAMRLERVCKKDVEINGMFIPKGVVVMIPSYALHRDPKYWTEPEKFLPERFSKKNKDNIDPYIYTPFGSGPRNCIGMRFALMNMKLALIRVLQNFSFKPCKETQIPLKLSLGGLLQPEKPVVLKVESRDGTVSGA
# UniProt P20813: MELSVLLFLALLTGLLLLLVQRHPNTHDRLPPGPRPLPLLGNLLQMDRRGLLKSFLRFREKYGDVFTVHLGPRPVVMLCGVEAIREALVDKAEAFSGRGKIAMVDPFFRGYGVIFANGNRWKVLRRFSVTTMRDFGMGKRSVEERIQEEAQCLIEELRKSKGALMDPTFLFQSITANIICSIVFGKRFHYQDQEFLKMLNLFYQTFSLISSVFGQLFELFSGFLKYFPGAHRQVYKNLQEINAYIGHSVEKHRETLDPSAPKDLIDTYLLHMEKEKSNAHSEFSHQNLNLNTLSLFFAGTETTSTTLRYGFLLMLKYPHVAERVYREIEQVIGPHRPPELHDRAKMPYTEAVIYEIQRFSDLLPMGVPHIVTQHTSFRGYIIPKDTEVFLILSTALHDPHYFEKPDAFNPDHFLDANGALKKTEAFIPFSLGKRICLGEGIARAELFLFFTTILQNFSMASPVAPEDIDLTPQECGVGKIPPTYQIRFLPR
# UniProt P06401: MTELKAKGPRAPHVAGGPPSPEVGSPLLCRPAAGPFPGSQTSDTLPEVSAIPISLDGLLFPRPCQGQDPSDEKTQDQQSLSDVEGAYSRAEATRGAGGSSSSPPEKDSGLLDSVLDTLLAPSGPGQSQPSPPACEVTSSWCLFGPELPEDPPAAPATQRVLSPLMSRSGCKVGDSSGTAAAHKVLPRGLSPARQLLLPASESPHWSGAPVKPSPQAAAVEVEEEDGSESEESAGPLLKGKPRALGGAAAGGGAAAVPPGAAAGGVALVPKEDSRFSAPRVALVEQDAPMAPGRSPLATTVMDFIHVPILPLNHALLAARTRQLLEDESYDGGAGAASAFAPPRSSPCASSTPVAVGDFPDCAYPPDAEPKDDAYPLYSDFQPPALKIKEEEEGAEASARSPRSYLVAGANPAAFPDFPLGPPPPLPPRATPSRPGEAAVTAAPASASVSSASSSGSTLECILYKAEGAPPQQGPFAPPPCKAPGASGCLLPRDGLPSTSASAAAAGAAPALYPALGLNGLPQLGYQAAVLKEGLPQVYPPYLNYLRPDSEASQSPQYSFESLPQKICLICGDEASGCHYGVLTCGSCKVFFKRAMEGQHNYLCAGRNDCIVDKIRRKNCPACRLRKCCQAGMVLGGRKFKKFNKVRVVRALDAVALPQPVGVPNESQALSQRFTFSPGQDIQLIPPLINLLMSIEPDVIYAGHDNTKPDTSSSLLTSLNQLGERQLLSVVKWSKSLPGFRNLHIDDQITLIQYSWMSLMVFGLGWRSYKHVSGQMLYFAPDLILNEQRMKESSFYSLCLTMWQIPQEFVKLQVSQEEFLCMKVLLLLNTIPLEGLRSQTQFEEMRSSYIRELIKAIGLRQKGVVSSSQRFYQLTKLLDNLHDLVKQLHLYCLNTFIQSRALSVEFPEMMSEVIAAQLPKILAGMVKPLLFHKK
# UniProt P11511: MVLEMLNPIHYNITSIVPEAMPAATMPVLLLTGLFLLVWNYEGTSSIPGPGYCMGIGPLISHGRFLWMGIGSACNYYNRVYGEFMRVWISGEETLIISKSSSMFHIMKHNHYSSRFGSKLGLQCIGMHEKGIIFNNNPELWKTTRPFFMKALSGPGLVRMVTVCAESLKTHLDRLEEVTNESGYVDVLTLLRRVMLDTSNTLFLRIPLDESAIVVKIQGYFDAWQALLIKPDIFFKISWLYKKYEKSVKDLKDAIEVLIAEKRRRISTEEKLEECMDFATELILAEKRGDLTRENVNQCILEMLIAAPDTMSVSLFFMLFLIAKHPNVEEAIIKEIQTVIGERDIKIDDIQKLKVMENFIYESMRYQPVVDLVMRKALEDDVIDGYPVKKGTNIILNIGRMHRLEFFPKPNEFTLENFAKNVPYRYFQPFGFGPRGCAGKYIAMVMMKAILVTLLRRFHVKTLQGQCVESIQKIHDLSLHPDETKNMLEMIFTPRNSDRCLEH
# UniProt P10827: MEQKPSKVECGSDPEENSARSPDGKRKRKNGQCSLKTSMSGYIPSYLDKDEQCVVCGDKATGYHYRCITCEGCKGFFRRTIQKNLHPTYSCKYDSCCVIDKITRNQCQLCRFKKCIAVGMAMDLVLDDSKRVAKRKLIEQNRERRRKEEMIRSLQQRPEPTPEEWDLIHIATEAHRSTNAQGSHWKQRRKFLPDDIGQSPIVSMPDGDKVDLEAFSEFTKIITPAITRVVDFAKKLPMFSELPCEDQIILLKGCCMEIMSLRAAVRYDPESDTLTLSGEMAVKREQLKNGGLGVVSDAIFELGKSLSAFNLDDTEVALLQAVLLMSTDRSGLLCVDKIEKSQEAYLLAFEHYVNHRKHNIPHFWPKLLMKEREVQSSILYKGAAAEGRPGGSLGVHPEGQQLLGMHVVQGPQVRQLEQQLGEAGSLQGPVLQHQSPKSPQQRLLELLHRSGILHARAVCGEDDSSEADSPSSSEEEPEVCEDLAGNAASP
# UniProt P37231: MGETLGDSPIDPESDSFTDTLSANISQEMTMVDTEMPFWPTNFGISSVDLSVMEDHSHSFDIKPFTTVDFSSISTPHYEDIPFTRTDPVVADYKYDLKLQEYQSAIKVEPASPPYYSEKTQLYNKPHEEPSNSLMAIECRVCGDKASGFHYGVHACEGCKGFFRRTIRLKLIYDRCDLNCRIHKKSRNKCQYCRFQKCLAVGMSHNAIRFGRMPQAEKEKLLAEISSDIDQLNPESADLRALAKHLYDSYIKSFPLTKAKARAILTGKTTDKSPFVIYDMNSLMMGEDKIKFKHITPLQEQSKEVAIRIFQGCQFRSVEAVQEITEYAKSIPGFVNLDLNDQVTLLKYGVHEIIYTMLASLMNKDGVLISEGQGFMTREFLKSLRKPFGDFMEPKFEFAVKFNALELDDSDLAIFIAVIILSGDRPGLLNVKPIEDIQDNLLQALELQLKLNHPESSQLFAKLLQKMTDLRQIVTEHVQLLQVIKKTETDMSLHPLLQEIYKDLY
# Columns and labels:
# [1] = molecular target: Estrogen receptor (Homo sapiens) + Estrogen receptor beta (Homo sapiens) (UniProt P03372+Q92731); assay: OT_ER_ERaERb_0480: Odyssey Thera (OT) 8-hour HEK293T Protein-Complementation Assay for Estrogen Receptor-alpha/-beta Heterodimer (AID 2283352)
# Procedure, shortened: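 Compound added to HEK293T cells carrying split-reporter-tagged ER-alpha and ER-beta LBDs, incubated 8 hours, then imaged by laser scanning cytometer. Signal rise in nucleus, or nucleus and cytoplasm, over vehicle was fitted in the positive direction.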
# [2] = molecular target: GAL4 Transcription Factor (Internal Marker), GAL4 (gene 855828) (UniProt P04386); assay: ATG_GAL4_XSP2: Attagene TRANS-FACTORIAL Multi-Species (XSP2) HepG2 Assay for GAL4 Transcription Factor (Internal Marker) (AID 2283814);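 note: GAL4 reporter mRNA background control in MRTU transfected cells not a receptor target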
# Procedure, shortened: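 HepG2 cells transiently transfected with GAL4-UAS reporter units, stimulated with 3 nM 6-alpha-fluorotestosterone plus 1.5 nM norgestrel, dosed 24 h. Reporter mRNA by RT-PCR/capillary electrophoresis; gain-of-signal fit versus DMSO, background control.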
# [3] = system: turtle Thyroid Hormone Receptor, alpha (TRa), gene 101949057; assay: ATG_trTRa_XSP2: Attagene TRANS-FACTORIAL Multi-Species (XSP1) HepG2 Assay for turtle Thyroid Hormone Receptor, alpha (TRa) (AID 2283834);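 note: hits raise reporter mRNA over the DMSO baseline so AC50 marks activators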
# Procedure, shortened: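 Transfection of HepG2 with multiple reporter transcription units, then chemical dosing for 24 h. Total RNA was reverse-transcribed, reporter sequences PCR-amplified and FAM-labelled, then sized by capillary electrophoresis. DMSO served as baseline.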
# [4] = molecular target: frog Thyroid hormone Receptor alpha (TRa), thra-a (gene 397942) (UniProt P15204); assay: ATG_frTRa_XSP2: Attagene TRANS-FACTORIAL Multi-Species (XSP2) HepG2 Assay for frog Thyroid hormone Receptor alpha (TRa) (AID 2283839);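 for AC50: AC50 reflects induction of frog TRa-driven reporter mRNA above DMSO baseline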
# Procedure, shortened: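 Transfect HepG2 with multiple reporter units (GAL4-UAS), dose chemical, incubate 24 h. Isolate RNA, reverse-transcribe, PCR-amplify reporter, label with 6-FAM by primer extension, digest with HpaI, run capillary electrophoresis; induction scored against DMSO.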
# [5] = read-out: Broad substrate specificity ATP-binding cassette transporter ABCG2 (Homo sapiens) (UniProt Q9UNQ0); assay: CLD_ABCG2_24hr: CellzDirect (CLD) Gene Expression Assay for ABC Transporter (ABCG2) at 24 hours (AID 2283685);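 for AC50: AC50 is for induction meaning signal gain over DMSO vehicle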
# Procedure, shortened: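 Primary human hepatocytes were dosed daily with ToxCast chemicals at multiple concentrations (vehicle 0.2% DMSO). ABCG2 mRNA was measured at 24 h by qNPA chemiluminescence; induction was scored as gain of signal versus DMSO.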
# [6] = read-out: sulfotransferase (SULT2A), SULT2A1 (gene 6822); assay: CLD_SULT2A_24hr: CellzDirect (CLD) Gene Expression Assay for sulfotransferase (SULT2A) at 24 hours (AID 2283694);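 note: potency for increased SULT2A1 mRNA level as induction over DMSO baseline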
# Procedure, shortened: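 Primary human hepatocytes from two donor preparations were dosed daily with fresh solutions, vehicle 0.2% DMSO. At 24 h, lysates went to quantitative nuclease protection (qNPA) with S1 digestion and chemiluminescent readout. Cytotoxicity was annotated from phase-contrast morphology.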
# [7] = read-out: Cytochrome P450 3A4 (Homo sapiens) (UniProt P08684); assay: CLD_CYP3A4_48hr: CellzDirect (CLD) Gene Expression Assay for xenobiotic metabolism (CYP3A4) at 48 hours (AID 2283698)
# Procedure, shortened: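 Primary human hepatocytes from two donor preparations dosed daily for two days with multiple chemical concentrations, 0.2% DMSO vehicle. CYP3A4 mRNA at 48 h by quantitative nuclease protection assay, chemiluminescence, positive fit versus DMSO; cytotoxicity flagged morphologically.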
# [8] = read-out: Cytochrome P450 2B6 (Homo sapiens) (UniProt P20813); assay: CLD_CYP2B6_48hr: CellzDirect (CLD) Gene Expression Assay for xenobiotic metabolism (CYP2B6) at 48 hours (AID 2283699);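 note: actives raise transcript level above DMSO so potency reflects induction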
# Procedure, shortened: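 Primary human hepatocytes dosed daily for two days over multiple concentrations, 0.2% DMSO vehicle; CYP2B6 mRNA quantified at 48 h by qNPA chemiluminescence. Induction fitted as gain of signal versus DMSO; cytotoxicity annotated by morphology.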
# [9] = molecular target: Estrogen receptor beta (Homo sapiens) (UniProt Q92731); assay: OT_ER_ERbERb_0480: Odyssey Thera (OT) 8-hour HEK293T Protein-Complementation Assay for Estrogen Receptor-beta/-beta Homodimer (AID 2283357);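 note: active means signal gain over DMSO baseline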
# Procedure, shortened: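 Readout: increase in mean fluorescence intensity (nucleus for agonists; nucleus plus cytoplasm for antagonists) relative to DMSO, from a reporter-fragment complementation of human ER-beta LBD homodimer in HEK293T cells dosed 8 hours.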
# [10] = CCTE_Shafer_MEA_dev_LDH: CCTE's Lactate Dehydrogenase Assay for Cytotoxicity in the Neural Network Formation Assay, Shafer Lab (AID 2284068);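 note: exposure for twelve days from plating with re-dosing on DIV 5 and 9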
# Procedure, shortened: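 Developing rat cortical networks on MEA plates are exposed to compound for 12 days from plating. LDH activity is measured spectrophotometrically, with DMSO as baseline.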
# [11] = CCTE_Mundy_HCI_hNP1_Pro_ResponderAvgInten: CCTE's Proliferation Assay in human neuroprogenitor cells, Mundy Lab (AID 2284224);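 note: human neural progenitor cells hNP1 derived from WA09 embryonic stem cells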
# Procedure, shortened: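 Human neuroprogenitors (hNP1, WA09 lineage) receive test chemical after 40 to 44 hours of attachment. A four-hour BrdU pulse begins twenty hours later, followed by fixation and high content imaging; signal is referenced to DMSO controls.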
# [12] = Tanguay_ZF_120hpf_SWIM_legacy: (Legacy) Oregon State University Tanguay Lab 120 Hour Post-fertilization zebrafish Assay for Swim Bladder Malformation (AID 2283654);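 note: swim bladder malformation in each larva scored yes or no under brightfield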
# Procedure, shortened: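 Dechorionated Tropical 5D wild-type embryos, placed singly from 6 hpf, were statically exposed at 28C to 120 hpf with 0.64% DMSO final; swim bladder malformation was scored present/absent by brightfield microscopy, gain of signal relative to DMSO controls.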
# PGR (gene 5241) = PGR (gene 5241) (UniProt P06401); assay: NVS_NR_hPR: NovaScreen (NVS) Nuclear Receptor Binding Assay for human Progestron Receptor (PR) (AID 2283360);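 note: active means loss of bound radioligand signal versus DMSO baseline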
# Procedure, shortened: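 Competitive displacement of a labelled radioligand from T47D-derived receptor protein is measured in a cell-free format. Initial testing uses 25 uM in duplicate, with positive and negative controls on every plate.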
# [13] = molecular target: human CYP19A1, CYP19A1 (gene 1588) (UniProt P11511); assay: NVS_ADME_hCYP19A1: NovaScreen (NVS) CYP450-related Enzyme Activity (ADME) Assay for human CYP19A1 (AID 2283098);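 for AC50: potency for inhibitors seen as loss of fluorescent enzyme signal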
# Procedure, shortened: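 Cell-free enzyme assay with recombinant protein and a specific fluorogenic substrate, read by fluorescence intensity 0.5 h after dosing. Primary screen ran in duplicate at 10 uM; actives were retested in concentration series. Loss of signal versus acetonitrile baseline.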
# [14] = ACEA_AR_antagonist_AUC_viability: ACEA Biosciences xCELLigence Real-Time Cell Analysis on Androgen Receptor Antagonism for Viability (AID 2283776);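 note: 22Rv1 human prostate cancer cells growing on impedance electrode plates; area under impedance growth curve at 80 h after dosing as viability; hits lower the growth signal relative to DMSO meaning cytotoxicity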
# Procedure, shortened: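 Viability endpoint from label-free cell-index monitoring: 22Rv1 cultures treated with an eight-point 1:4 dilution series starting at 100 uM final, AUC at 80 h fitted against DMSO.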
# [15] = molecular target: human Thyroid Receptor Alpha (TRa), THRA (gene 7067) (UniProt P10827); assay: NVS_NR_hTRa_Antagonist: NovaScreen (NVS) Nuclear Receptor Binding Assay for human Thyroid Receptor Alpha Antagonism (TRa) (AID 2283362);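 note: activity is loss of signal relative to DMSO baseline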
# Procedure, shortened: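 Extracted protein, cell-free; 1 h incubation after dosing; AlphaLISA chemiluminescence binding readout. DMSO = baseline/neg ctrl; signal loss = activity. Primary: duplicate, 25 uM; secondary: conc. series on actives.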
# [16] = read-out: ABC Transporter (ABCB11), ABCB11 (gene 8647); assay: CLD_ABCB11_6hr: CellzDirect (CLD) Gene Expression Assay for ABC Transporter (ABCB11) at 6 hours (AID 2283675);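 note: hits raise ABCB11 mRNA level so AC50 marks induction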
# Procedure, shortened: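 Human primary hepatocytes (two donor preparations) given fresh chemical daily at multiple concentrations, vehicle 0.2% DMSO. ABCB11 mRNA induction measured 6 h after dosing by qNPA chemiluminescence versus DMSO; cytotoxicity annotated from morphology.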
# [17] = molecular target: Peroxisome proliferator-activated receptor gamma (Homo sapiens) (UniProt P37231); assay: OT_PPARg_PPARgSRC1_0480: Odyssey Thera (OT) 8-hour Protein-Complementation Assay for Peroxisome Proliferator-activated Receptor Gamma / SRC-1 Co-activator (AID 2283387);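 note: nuclear to cytoplasmic split Venus YFP fluorescence ratio reporting PPARg SRC-1 interaction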
# Procedure, shortened: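 Split-YFP (IFP1/IFP2) PPARg/SRC-1 reporter, HEK293T, 37 °C, 5% CO2; 8 h compound; formaldehyde fix + Draq5; high-content imaging, N/C ratio, ≥350 cells/image, positive direction vs DMSO.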
# [18] = STM_H9_OrnCyssISnorm_ratio: Stemina devTOX quickPredict H9 human embryonic stem cell (hESC)-based Assay for Ornithine (ORN):Cystine (CYSS) Ratio (AID 2283714)
# Procedure, shortened: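 Undifferentiated H9 hESCs were exposed to compound for 72h with media and chemical replaced every 24h. Final 24-h conditioned media were deproteinized and analysed by UPLC-HRMS. ORN and CYSS peak areas were normalized to C13 internal standards and the ratio taken versus 0.1% DMSO.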
# [19] = Tanguay_ZF_120hpf_BRAI_legacy: (Legacy) Oregon State University Tanguay Lab 120 Hour Post-fertilization zebrafish Assay for Brain Malformation (AID 2283641)
# Procedure, shortened: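 Wild-type 5D larvae, static waterborne exposure to 120 hpf, 28C, 0.64% v/v DMSO. Brightfield scoring of brain defects, binary; dead embryos excluded. Positive ctrl 5uM trimethyltin chloride.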
compound,measurement,setting,value
CC(C)C1CCC(Cc2ccc(Cl)cc2)C1(O)Cn1cncn1 (stereo not given),AC50,[1],inconclusive: 89.8 µM
same,outcome,[2],inactive
same,AC50,[3],inconclusive: 11.1 µM
same,outcome,[3],inactive
same,AC50,[4],inconclusive: 11.1 µM
same,outcome,[4],inactive
O=c1ccc(=O)[nH][nH]1,outcome,[5],inactive
same,AC50,[6],inconclusive: 0.0004 µM
same,AC50,[7],inconclusive: 0.0624 µM
same,AC50,[8],inconclusive: 0.0004 µM
CC(C)(OOC(C)(C)c1ccccc1)c1ccccc1,AC50,[9],active: 3.31 µM
CS(=O)(=O)c1ccc(C(=O)C2C(=O)CCCC2=O)c(Cl)c1COCC(F)(F)F,AC50,[10],inconclusive: 0.0143 µM
same,AC50,[11],inconclusive: 15 µM
COCC(C)N(C(=O)CCl)c1c(C)csc1C (stereo not given),AC50,[9],inconclusive: 50 µM
same,AC50,[12],active: 8.24 µM
C#CCC1=C(C)C(OC(=O)C2C(C=C(C)C)C2(C)C)CC1=O (stereo not given),AC50,PGR (gene 5241),inconclusive: 0.0897 µM
same,AC50,[2],inconclusive: 100 µM
same,AC50,[10],inconclusive: 0.191 µM
CCOP(=O)(OCC)Oc1ccc([N+](=O)[O-])cc1,AC50,[13],active: 6.54 µM
same,AC50,[9],inconclusive: 50 µM
CCc1cccc(C)c1N(C(=O)CCl)C(C)COC (stereo not given),outcome,[13],inactive
same,AC50,PGR (gene 5241),inconclusive: 25 µM
same,outcome,[12],inactive
same,AC50,[3],inconclusive: 0.156 µM
same,outcome,[4],inactive
C1=Cc2cccc3cccc1c23,AC50,[13],inconclusive: 10 µM
same,outcome,[10],inactive
CCC(=O)c1ccc(Cl)cc1,outcome,[13],inactive
same,AC50,[14],inconclusive: 16.6 µM
COc1cc(OC)nc(NC(=O)NS(=O)(=O)c2cc(NC=O)ccc2C(=O)N(C)C)n1,outcome,[15],inactive
same,AC50,[16],inconclusive: 20 µM
same,AC50,[7],inconclusive: 0.0321 µM
O=Cc1ccco1,AC50,[12],inconclusive: 35.4 µM
Cc1cccc(N)c1N,AC50,[17],active: 31.9 µM and active: 66.9 µM
same,AC50,[18],active: 74.5 µM
CCOP(=S)(OCC)OC(Cl)C(Cl)(Cl)Cl (stereo not given),AC50,[12],inconclusive: 56.4 µM
same,AC50,[14],inconclusive: 50 µM
same,AC50,[11],active: 50 µM and active: 75.1 µM
O=C1C(Cl)=C(Cl)C(=O)c2ccccc21,AC50,[1],inconclusive: 30.8 µM
same,AC50,[9],inconclusive: 87.2 µM
same,AC50,[17],active: 11.8 µM
c1ccc(N=Nc2ccccc2)cc1,AC50,[12],inconclusive: 201 µM
CC1=NNC(=O)N(/N=C/c2cccnc2)C1,AC50,[5],inconclusive: 37.3 µM
same,AC50,[8],inconclusive: 20 µM
same,AC50,[18],inconclusive: 0.0358 µM
same,outcome,[14],inactive
same,AC50,[11],inconclusive: 0.208 µM
N#Cc1c(Cl)cccc1Cl,AC50,[13],inconclusive: 17.7 µM
same,AC50,[6],inconclusive: 20 µM
same,AC50,[7],active: 4.83 µM
O=C(NC(=O)c1c(F)cccc1F)Nc1ccc(OC(F)(F)C(F)OC(F)(F)F)c(Cl)c1 (stereo not given),outcome,[1],inactive
same,AC50,[19],inconclusive: 101 µM
same,outcome,[16],inactive
same,outcome,[7],inactive
same,AC50,[18],inconclusive: 50 µM

# Reprinted at random: three records from the list, in no set order.
compound,measurement,setting,value
CCOP(=O)(OCC)Oc1ccc([N+](=O)[O-])cc1,AC50,[9],inconclusive: 50 µM
CCOP(=S)(OCC)OC(Cl)C(Cl)(Cl)Cl (stereo not given),AC50,[12],inconclusive: 56.4 µM
O=C(NC(=O)c1c(F)cccc1F)Nc1ccc(OC(F)(F)C(F)OC(F)(F)F)c(Cl)c1 (stereo not given),AC50,[18],inconclusive: 50 µM

# From PubChem BioAssay (EPA / NIEHS)
